These are yes or no findings as the source states them, for the method shown. In cells and extracts the contact can be indirect. A yes stands for co-enrichment or nearness to the bait. Other partners may have been found. For part of these data: A no says only that the protein was not detected with the bait.
Columns and labels:
[1] = target: EZH2 (human (endogenous in NCI-H295R and in human adrenal tissue)) (UniProt Q15910); assay: affinity purification with mass spectrometry
[2] = target: SF1 (NR5A1) (human (endogenous in NCI-H295R and in human adrenal tissue)) (UniProt Q13285); assay: affinity purification with mass spectrometry

Amino acid sequences for entries named in this document (tags omitted). A change or cut given only in a name is not applied to a line headed by its entry.
UniProt Q15910: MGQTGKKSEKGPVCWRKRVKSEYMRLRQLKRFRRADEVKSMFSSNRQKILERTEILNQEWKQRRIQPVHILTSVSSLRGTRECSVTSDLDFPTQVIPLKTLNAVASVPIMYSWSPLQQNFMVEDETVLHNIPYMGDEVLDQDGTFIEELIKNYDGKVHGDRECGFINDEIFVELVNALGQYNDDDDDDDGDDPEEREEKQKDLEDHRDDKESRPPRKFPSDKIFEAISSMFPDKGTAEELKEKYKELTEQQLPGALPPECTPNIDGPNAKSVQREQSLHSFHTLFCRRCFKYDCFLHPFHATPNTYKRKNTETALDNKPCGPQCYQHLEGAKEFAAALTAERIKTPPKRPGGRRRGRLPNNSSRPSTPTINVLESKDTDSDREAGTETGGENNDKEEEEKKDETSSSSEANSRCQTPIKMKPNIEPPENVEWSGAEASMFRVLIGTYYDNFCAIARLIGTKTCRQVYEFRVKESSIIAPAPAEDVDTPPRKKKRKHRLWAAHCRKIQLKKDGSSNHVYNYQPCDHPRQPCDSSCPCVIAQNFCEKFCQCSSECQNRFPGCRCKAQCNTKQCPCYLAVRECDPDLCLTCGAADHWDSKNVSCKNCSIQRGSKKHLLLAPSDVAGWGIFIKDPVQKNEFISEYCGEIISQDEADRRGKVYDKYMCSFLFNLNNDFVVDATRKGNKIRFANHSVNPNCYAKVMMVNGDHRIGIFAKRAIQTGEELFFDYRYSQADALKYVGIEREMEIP
UniProt Q13285: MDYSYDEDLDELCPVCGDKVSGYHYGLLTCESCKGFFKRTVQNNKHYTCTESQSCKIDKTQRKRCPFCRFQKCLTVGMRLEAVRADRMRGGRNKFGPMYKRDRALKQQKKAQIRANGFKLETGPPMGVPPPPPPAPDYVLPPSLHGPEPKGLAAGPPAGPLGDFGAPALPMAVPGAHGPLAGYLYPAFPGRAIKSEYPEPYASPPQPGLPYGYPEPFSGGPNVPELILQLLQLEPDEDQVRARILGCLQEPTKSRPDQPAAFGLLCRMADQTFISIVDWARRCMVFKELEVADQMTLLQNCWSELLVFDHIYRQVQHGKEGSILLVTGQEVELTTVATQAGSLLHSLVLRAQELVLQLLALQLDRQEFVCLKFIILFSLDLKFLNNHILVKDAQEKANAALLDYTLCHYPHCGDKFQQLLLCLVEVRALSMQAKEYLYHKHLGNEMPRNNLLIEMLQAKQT
UniProt P35222: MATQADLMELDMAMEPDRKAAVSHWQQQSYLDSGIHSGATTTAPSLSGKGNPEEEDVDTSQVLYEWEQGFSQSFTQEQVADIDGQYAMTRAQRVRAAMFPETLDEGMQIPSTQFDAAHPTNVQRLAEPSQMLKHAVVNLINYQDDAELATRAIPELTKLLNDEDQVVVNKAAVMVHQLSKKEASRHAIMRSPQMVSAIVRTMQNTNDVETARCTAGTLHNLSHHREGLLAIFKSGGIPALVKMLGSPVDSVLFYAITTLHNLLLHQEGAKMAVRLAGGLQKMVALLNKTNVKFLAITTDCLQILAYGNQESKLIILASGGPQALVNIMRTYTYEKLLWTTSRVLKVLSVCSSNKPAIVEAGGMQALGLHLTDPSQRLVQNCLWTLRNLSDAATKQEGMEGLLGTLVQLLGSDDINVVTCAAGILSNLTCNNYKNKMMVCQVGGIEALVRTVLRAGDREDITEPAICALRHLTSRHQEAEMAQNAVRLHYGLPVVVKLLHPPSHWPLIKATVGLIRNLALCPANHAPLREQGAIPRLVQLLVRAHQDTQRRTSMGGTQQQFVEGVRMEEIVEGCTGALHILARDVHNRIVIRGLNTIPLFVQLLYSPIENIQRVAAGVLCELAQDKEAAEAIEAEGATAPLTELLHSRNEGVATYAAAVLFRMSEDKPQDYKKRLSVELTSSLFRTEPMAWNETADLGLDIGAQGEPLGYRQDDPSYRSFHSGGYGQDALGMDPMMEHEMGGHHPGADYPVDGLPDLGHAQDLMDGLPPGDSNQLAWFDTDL

| binding [1] | binding [2] | Substance |
| --- | --- | --- |
| no binding |  | SF1 (NR5A1) (from UniProt Q13285 1-461) |
| binds | binds | p.S45P β-catenin (from UniProt P35222 1-781) |

Source: article doi:10.1101/2022.07.02.497654
